# This is one part of the list.
# Protein sequences, listed by entry. Tags and fused reporters are not part of them. Lines headed by an entry give the natural chain unless they say otherwise; changes in a name come on top.
# UniProt Q9Y2L9: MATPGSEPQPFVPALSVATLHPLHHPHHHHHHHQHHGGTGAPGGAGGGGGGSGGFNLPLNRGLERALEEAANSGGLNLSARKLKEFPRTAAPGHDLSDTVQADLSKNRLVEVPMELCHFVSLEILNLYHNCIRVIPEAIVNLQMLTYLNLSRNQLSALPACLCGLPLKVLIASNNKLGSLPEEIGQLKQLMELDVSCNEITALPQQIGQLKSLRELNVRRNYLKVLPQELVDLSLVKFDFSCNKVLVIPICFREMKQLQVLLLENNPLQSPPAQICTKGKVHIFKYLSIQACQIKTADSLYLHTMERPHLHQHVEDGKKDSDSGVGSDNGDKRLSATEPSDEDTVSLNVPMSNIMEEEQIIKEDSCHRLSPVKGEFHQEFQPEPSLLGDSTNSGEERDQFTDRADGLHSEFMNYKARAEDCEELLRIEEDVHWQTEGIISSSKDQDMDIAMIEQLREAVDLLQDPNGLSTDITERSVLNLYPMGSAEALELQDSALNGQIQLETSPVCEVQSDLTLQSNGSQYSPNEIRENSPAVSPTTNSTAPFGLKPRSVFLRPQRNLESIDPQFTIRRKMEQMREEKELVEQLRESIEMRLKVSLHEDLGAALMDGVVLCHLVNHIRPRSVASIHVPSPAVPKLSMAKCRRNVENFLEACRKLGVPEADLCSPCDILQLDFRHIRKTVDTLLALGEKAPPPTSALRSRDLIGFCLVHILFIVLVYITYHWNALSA
# UniProt Q9UIQ6, whole entry: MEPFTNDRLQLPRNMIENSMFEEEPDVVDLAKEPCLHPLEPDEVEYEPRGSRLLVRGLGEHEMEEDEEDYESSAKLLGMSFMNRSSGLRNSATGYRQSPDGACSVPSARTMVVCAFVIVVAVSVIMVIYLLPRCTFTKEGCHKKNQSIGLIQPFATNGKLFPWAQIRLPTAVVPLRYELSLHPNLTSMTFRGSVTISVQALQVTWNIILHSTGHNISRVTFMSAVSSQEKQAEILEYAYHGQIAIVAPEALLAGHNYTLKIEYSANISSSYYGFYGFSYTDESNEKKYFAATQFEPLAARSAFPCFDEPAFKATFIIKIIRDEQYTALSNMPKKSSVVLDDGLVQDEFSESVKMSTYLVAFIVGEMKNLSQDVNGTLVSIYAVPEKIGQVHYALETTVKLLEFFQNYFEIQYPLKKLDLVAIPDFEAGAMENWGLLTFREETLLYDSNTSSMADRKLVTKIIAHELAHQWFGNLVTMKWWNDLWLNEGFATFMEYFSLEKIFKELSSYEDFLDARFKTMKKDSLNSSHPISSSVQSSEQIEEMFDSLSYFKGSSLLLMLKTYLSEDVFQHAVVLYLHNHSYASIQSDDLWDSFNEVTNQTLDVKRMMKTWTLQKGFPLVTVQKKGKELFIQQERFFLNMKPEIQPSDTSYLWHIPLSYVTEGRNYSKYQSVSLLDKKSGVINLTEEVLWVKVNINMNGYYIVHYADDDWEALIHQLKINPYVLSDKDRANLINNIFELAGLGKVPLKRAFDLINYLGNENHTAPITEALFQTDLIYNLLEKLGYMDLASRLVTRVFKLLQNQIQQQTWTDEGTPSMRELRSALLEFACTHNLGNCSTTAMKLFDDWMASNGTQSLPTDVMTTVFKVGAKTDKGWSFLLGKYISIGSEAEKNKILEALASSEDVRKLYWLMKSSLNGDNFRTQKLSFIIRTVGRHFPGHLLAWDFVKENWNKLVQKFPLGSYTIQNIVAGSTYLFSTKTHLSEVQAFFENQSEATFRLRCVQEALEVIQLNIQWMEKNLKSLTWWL
# UniProt Q8TDW0: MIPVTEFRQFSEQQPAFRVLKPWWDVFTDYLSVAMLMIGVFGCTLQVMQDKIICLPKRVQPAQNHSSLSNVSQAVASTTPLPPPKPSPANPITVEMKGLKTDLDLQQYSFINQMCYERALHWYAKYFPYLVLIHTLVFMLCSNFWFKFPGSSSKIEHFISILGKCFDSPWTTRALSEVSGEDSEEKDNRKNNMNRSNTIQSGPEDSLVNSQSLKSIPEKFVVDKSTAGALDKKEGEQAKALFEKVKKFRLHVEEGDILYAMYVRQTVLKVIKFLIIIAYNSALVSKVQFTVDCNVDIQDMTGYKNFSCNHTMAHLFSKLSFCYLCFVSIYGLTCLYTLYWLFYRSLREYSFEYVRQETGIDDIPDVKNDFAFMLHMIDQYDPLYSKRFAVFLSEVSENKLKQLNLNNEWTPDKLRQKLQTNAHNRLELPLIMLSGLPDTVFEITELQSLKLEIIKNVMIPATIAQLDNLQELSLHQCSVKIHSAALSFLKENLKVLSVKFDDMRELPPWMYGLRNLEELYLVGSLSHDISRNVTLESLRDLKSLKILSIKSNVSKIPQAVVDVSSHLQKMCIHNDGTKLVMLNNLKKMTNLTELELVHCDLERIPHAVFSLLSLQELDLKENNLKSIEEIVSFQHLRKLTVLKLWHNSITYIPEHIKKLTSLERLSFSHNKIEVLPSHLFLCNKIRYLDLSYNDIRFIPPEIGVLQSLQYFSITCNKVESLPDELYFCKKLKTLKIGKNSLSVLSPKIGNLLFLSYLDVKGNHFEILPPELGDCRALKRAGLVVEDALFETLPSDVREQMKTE
# UniProt Q96PV6, whole entry: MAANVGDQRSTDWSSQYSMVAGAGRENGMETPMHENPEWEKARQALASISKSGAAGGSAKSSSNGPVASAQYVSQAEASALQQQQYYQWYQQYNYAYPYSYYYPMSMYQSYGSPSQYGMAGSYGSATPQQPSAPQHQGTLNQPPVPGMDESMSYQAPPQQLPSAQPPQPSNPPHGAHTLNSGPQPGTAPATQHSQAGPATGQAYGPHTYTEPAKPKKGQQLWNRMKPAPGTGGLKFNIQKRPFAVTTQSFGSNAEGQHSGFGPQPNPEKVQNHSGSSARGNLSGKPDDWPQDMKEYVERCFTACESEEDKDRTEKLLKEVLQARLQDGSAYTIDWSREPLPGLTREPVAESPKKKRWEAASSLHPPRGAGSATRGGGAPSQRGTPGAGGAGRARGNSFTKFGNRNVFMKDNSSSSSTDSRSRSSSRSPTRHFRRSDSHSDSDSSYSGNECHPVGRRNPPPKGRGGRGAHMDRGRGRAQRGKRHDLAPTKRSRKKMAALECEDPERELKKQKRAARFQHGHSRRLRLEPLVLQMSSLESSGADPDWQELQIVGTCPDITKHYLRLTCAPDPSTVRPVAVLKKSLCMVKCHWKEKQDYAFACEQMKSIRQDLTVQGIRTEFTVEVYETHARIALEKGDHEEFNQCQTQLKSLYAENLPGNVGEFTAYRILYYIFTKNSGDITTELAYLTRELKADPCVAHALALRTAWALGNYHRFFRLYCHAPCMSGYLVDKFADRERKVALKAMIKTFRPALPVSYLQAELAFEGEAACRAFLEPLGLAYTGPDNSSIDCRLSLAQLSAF
# UniProt Q9P2N6: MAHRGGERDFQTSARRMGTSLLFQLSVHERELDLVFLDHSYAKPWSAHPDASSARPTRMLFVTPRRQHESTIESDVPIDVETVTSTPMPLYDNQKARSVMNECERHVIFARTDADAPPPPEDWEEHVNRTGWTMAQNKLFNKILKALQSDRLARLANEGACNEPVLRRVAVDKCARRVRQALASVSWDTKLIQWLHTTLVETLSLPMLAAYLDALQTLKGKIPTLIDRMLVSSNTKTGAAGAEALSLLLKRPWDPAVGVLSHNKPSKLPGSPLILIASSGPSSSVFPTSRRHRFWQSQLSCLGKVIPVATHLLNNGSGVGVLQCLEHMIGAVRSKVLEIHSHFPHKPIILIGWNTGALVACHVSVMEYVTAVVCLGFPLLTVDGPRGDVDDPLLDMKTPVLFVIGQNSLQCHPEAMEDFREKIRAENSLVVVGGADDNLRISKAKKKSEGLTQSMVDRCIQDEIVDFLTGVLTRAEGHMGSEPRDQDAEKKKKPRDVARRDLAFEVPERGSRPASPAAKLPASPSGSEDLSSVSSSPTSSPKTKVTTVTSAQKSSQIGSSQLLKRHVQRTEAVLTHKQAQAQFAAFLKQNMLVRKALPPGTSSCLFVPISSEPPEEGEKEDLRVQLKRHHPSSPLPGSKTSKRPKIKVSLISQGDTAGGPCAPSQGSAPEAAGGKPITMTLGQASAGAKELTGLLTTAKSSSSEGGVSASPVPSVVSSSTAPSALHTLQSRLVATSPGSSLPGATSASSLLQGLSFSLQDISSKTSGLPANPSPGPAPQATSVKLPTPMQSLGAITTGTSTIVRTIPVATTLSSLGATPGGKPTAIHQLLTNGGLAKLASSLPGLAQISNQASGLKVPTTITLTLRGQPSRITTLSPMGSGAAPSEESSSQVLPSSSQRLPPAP
# UniProt Q7L5Y9: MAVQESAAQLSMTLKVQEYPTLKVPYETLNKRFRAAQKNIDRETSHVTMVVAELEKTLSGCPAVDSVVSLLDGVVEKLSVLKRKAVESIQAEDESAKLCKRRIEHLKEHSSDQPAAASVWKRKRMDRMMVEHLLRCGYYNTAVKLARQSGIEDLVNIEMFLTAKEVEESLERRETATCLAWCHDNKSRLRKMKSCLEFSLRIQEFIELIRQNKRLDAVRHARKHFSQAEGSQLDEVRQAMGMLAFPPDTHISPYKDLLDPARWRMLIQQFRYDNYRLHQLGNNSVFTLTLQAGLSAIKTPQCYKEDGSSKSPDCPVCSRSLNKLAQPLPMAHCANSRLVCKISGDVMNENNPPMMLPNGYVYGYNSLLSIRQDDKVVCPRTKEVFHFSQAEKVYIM
# UniProt Q8WVP7: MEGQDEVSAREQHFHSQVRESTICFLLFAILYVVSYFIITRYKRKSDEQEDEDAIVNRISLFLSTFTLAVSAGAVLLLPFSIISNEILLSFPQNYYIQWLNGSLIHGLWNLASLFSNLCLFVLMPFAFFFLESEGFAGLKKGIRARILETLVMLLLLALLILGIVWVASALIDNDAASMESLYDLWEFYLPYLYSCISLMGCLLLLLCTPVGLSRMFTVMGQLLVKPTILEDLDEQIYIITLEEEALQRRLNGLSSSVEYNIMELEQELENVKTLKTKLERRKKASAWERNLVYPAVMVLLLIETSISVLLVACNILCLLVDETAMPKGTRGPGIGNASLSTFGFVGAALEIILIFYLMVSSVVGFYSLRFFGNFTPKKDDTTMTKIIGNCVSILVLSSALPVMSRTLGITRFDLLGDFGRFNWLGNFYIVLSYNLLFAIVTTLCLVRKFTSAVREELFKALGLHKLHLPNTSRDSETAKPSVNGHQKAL
# UniProt O60711: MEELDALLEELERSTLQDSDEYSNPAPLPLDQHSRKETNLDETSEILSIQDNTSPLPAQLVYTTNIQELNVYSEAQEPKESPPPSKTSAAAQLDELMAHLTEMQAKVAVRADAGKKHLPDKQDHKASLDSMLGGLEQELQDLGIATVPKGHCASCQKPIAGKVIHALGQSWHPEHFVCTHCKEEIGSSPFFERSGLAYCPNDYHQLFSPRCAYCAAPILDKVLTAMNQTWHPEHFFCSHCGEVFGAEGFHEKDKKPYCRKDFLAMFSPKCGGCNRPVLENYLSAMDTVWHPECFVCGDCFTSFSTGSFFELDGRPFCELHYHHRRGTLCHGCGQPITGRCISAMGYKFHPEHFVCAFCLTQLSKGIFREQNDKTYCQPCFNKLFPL
# UniProt Q6ZMG9: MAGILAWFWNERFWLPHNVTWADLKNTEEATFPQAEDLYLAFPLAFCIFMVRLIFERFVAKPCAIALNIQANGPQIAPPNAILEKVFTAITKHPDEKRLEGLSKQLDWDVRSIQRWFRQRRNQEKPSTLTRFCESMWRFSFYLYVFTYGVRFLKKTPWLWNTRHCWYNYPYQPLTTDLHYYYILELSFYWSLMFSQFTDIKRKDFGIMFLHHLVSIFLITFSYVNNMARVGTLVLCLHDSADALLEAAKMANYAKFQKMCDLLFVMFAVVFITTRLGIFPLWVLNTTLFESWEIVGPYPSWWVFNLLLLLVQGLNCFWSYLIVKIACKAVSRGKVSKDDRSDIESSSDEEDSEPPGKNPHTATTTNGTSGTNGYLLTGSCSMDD
# UniProt P02545: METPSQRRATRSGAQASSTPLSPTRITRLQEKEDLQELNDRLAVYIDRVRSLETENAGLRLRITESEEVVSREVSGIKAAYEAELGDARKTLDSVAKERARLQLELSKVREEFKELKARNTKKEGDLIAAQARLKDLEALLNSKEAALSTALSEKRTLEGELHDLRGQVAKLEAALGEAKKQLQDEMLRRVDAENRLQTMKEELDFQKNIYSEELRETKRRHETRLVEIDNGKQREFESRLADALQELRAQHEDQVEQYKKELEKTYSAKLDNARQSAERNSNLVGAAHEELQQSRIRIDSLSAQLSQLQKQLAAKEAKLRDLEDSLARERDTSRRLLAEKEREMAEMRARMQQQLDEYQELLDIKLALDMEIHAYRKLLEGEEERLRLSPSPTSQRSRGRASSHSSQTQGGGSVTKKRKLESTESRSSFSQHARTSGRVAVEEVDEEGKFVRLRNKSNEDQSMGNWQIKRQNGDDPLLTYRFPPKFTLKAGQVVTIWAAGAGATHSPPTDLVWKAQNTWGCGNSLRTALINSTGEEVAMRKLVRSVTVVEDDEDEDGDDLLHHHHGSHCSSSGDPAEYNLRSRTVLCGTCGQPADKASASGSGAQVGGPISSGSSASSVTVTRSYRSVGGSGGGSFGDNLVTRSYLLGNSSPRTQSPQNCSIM
# Compound: COc1ccc(Cn2ccc3ccc(C(=O)NO)cc32)cc1
# Assay: dose-dependent thermal stabilisation call (2D-TPP, DLPTP, 10% FDR) (binary (1 = stabilised)); higher = stabilised by the compound
# Details: system: HL-60 intact cells; concentration range 0.04-10 µM
row,Target,dose-dependent thermal stabilisation call
1,MAN1A2 (UniProt O60476),inactive: 0
2,LRRC59 (UniProt Q96AG4),inactive: 0
3,KIFC1 (UniProt Q9BW19),inactive: 0
4,LRCH1 (UniProt Q9Y2L9),inactive: 0
5,LRBA (UniProt P50851),inactive: 0
6,LARP1 (UniProt Q6PKG0),inactive: 0
7,LEPREL2 (UniProt Q8IVL6),inactive: 0
8,LPCAT3 (UniProt Q6P1A2),inactive: 0
9,LNPEP (UniProt Q9UIQ6),inactive: 0
10,LRRC8C (UniProt Q8TDW0),inactive: 0
11,MAD2L2 (UniProt Q9UI95),inactive: 0
12,KIF2A (UniProt O00139),inactive: 0
13,LENG8 (UniProt Q96PV6),inactive: 0
14,LMBRD1 (UniProt Q9NUN5),inactive: 0
15,LANCL2 (UniProt Q9NS86),inactive: 0
16,KPNB1 (UniProt Q14974),inactive: 0
17,LSM7 (UniProt Q9UK45),inactive: 0
18,LGALS9 (UniProt O00182),inactive: 0
19,KIAA1310 (UniProt Q9P2N6),inactive: 0

# Single entries from the entries so far:
# For dose-dependent thermal stabilisation call, LSM7 (UniProt Q9UK45) is entered as inactive: 0
# For dose-dependent thermal stabilisation call, LENG8 (UniProt Q96PV6) is entered as inactive: 0
# For dose-dependent thermal stabilisation call, KIAA1310 (UniProt Q9P2N6) is entered as inactive: 0

# Additional results:

row,Target,dose-dependent thermal stabilisation call
1,MAEA (UniProt Q7L5Y9),inactive: 0
2,LSM4 (UniProt Q9Y4Z0),inactive: 0
3,LMBR1 (UniProt Q8WVP7),inactive: 0
4,KIAA1467 (UniProt A2RU67),inactive: 0
5,LPXN (UniProt O60711),inactive: 0
6,LMTK2 (UniProt Q8IWU2),inactive: 0
7,LRRC58 (UniProt Q96CX6),inactive: 0
8,LASS6 (UniProt Q6ZMG9),inactive: 0
9,LIG1 (UniProt P18858),inactive: 0
10,LAT2 (UniProt Q9GZY6),inactive: 0
11,KIAA1602 (UniProt Q9HCH0),inactive: 0
12,LMNA (UniProt P02545),inactive: 0
13,KIF20B (UniProt Q96Q89),inactive: 0
14,LARP7 (UniProt Q4G0J3),inactive: 0
15,KIAA1432 (UniProt Q4ADV7),inactive: 0
16,M6PRBP1 (UniProt O60664),inactive: 0
17,LSM5 (UniProt Q9Y4Y9),inactive: 0
18,LYPLA1 (UniProt O75608),active: 1
19,LOC642451,inactive: 0

# Source: the supplement of paper PMC7666118
